Patent US20070134261A1, “Effectors of innate immunity” (priority 2001, published 2007)
At least one peptide structure holds a part that was inferred or is arguable (an end, a ring closure or a residue). No end group written: not given here.

Tests used:
[1] = system: S. aureus; experiment: S. aureus infection in CD-1 mice, peptide with sub-optimal Cefepime (viable counts in blood); assay type: in vivo, mouse; conditions: combination with sub optimal cefepime 0.1 mg/kg, IP 6 hours after S. aureus; blood at 24 hrs
[2] = system: S. aureus; experiment: Murine S. aureus infection model (CD-1 mice); assay type: in vivo, mouse; conditions: peptide 200 μg IP; No Peptide 6/8
Description: BALB/c mice were given 1×10^5 Salmonella and cationic peptide (200 μg) by intraperitoneal injection. The mice were monitored for 24 hours at which point they were euthanized, the spleen removed, homogenized and resuspended in PBS and plated on Luria Broth agar plates with Kanamycin (50 μg/ml). The plates were incubated overnight at 37° C. and counted for viable bacteria (Table 49 and 50). CD-1 mice were given 1×10^8 S. aureus in 5% porcine mucin and cationic peptide (200 μg) by intraperitoneal injection (Table 51). The mice were monitored for 3 days at which point they were euthanized, blood removed and plated for viable counts. CD-1 male mice were given 5.8×10^6 CFU EHEC bacteria and cationic peptide (200 μg) by intraperitoneal (IP) injection and monitored for 3 days (Table 52). […] Many of the cationic peptides were shown not to be directly antimicrobial as tested by the Minimum Inhibitory Concentration (MIC) assay (Table 54).

KSRIVPAIPVSLL [SEQ ID NO: 7]
therapeutic efficacy (viable counts from blood) [1]: improved therapeutic efficacy
# Mice Survived (3 days)/Total mice in group [2]: 4/4
